Some of these results come from one statement about several compounds together.
Experiments:
Capan-1 (K-Ras G12V) = assay: CellTiter-Glo cell viability assay, Capan-1; format: cell-based, human; conditions: 5-day treatment, Capan-1 versus A375
K-RasG12V = K-RasG12V (Homo sapiens, UniProt P01116+P62937, G12V); assay: Disruption of BRAF RBD interaction with K-Ras (TR-FRET / MOA assay), K-RasG12V; format: biochemical; conditions: TR-FRET with cyclophilin A and GST-BRAF RBD, read-out: IC50 with respect to K-RasG12V (disruption of BRAF RBD interaction)

Sequences of proteins named here, by UniProt entry; tags and fusion partners are left off. A change or cut given only in a name is not applied to a line headed by its entry. Residues count along the entry.
UniProt P01116, 1-188 isoform P01116-2 G12V: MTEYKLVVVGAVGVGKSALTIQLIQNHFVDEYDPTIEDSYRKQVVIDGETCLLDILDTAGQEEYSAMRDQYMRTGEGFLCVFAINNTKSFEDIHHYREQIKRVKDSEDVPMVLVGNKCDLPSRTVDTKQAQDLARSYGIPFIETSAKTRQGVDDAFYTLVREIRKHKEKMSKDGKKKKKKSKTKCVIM
UniProt P62937, whole entry: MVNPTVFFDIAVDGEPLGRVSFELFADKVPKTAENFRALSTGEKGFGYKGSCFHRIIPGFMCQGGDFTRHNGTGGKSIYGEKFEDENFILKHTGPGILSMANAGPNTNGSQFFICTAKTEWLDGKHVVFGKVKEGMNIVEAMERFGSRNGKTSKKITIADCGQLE

SMILES | decrease in cell viability with respect to KRAS G12V (Capan-1) versus wild-type KRAS (A375) (Capan-1 (K-Ras G12V)) | IC50 (K-RasG12V) [nM]
CO[C@@H](C)c1ncccc1-c1c2c3cc(ccc3n1C1CC1)-c1coc(n1)[C@@H](N1CC3(COC3)C1)[C@H](NC(=O)[C@H]1[C@@H]3COC[C@@H]31)C(=O)N1CCC[C@H](N1)C(=O)OCC(C)(C)C2 (racemic) [Example A55] | greater decrease in cell viability | < 1000
CO[C@@H](C)c1ncccc1-c1c2c3cc(ccc3n1C1COC1)-c1coc(n1)[C@@H](N1CC3(COC3)C1)[C@H](NC(=O)[C@H]1[C@@H]3COC[C@@H]31)C(=O)N1CCC[C@H](N1)C(=O)OCC(C)(C)C2 (racemic) [Example A56] | greater decrease in cell viability | < 1000
CO[C@@H](C)c1ncc(C2CCN(C3CC3)CC2)cc1-c1c2c3cc(ccc3n1CCOC1CCOCC1)-c1csc(n1)[C@@H](N1CC3(CCCO3)C1)[C@H](NC(=O)[C@@H]1C[C@@H](C)O1)C(=O)N1CCC[C@H](N1)C(=O)OCC(C)(C)C2 (racemic) [Example A57] | greater decrease in cell viability | < 1000
CO[C@@H](C)c1ncc(C2CCN(C3CC3)CC2)cc1-c1c2c3cc(ccc3n1CCOC1CCOCC1)-c1csc(n1)[C@@H](N1CC3(CCCO3)C1)[C@H](NC(=O)[C@H]1C[C@@H](C)O1)C(=O)N1CCC[C@H](N1)C(=O)OCC(C)(C)C2 (racemic) [Example A58] | greater decrease in cell viability | < 1000
CO[C@@H](C)c1ncc(C2CCN(C3CC3)CC2)cc1-c1c2c3cc(ccc3n1CCOC1CCOCC1)-c1csc(n1)[C@@H](N1CC3(CCOC3)C1)[C@H](NC(=O)[C@@H]1C[C@@H](C)O1)C(=O)N1CCC[C@H](N1)C(=O)OCC(C)(C)C2 (racemic) [Example A59] | greater decrease in cell viability | < 1000
CO[C@@H](C)c1ncc(N2CCN(C3CC3)CC2)cc1-c1c2c3cc(ccc3n1CCOC1CCOCC1)-c1csc(n1)[C@@H](N1CC3(CCCO3)C1)[C@H](NC(=O)[C@@H]1C[C@@H](C)O1)C(=O)N1CCC[C@H](N1)C(=O)OCC(C)(C)C2 (racemic) [Example A60] | greater decrease in cell viability | < 1000
CO[C@@H](C)c1ncc(N2CCN(C3CC3)CC2)cc1-c1c2c3cc(ccc3n1CCOC1CCOCC1)-c1csc(n1)[C@@H](N1CC3(CCCO3)C1)[C@H](NC(=O)[C@H]1C[C@@H](C)O1)C(=O)N1CCC[C@H](N1)C(=O)OCC(C)(C)C2 (racemic) [Example A61] | greater decrease in cell viability | < 1000
CO[C@@H](C)c1ncccc1-c1c2c3cc(ccc3n1CCOC1CCOCC1)-c1csc(n1)[C@@H](N1CC3(CCCO3)C1)[C@H](NC(=O)[C@@H]1OC[C@@H]1C)C(=O)N1CCC[C@H](N1)C(=O)OCC(C)(C)C2 (racemic) [Example A62] | greater decrease in cell viability | < 1000
[2H]C([2H])([2H])C1OC2(C(=O)N[C@@H]3C(=O)N4CCC[C@H](N4)C(=O)OCC(C)(C)Cc4c(-c5cc(C6CCN(C7CC7)CC6)cnc5[C@H](C)OC)n(CCOC5CCOCC5)c5ccc(cc45)-c4csc(n4)[C@H]3N3CC4(COC4)C3)CC1(C([2H])([2H])[2H])C2 (mixture of isomers) [Example A63] | greater decrease in cell viability | < 1000
CO[C@@H](C)c1ncc(N2CCN(C3CC3)CC2)cc1-c1c2c3cc(ccc3n1CCO[C@H]1CCOC(C)(C)C1)-c1coc(n1)[C@@H](N1CC3(COC3)C1)[C@H](NC(=O)N1CC[C@H]1C)C(=O)N1CC3CC(C3)(N1)C(=O)OCC(C)(C)C2 (racemic) [Example A64] | greater decrease in cell viability | < 1000
